Screen size: about 580,000 compounds; about 6,100 (1.1%) were called active. This list was built around the results that the source calls inconclusive (neither active nor inactive); the mix of calls is not that of the screen. The call rests on the fitted dose curve; in most records, active means well fitted inhibition curve with a large enough effect; inconclusive means small, poorly fitted or top-dose-only effect, or another doubt; inactive means no such curve, though single readings can be large or run the other way. A potency beside an inconclusive call is a rough fit, not a confirmed value.
Molecular target: Polyunsaturated fatty acid lipoxygenase ALOX12 (Homo sapiens) (UniProt P18054)
Assay: Primary qHTS assay for inhibitors of human arachidonate 12S-lipoxygenase (ALOX12): Round 2
Conditions: purified 12hLO, xylenol orange hydroperoxide absorbance; activity change, negative = inhibition: at 108 µM (top of the series) unless noted
How it was run: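 Purified human 12hLO at 150 nM in 25 mM Hepes, 0.01% Triton X-100, pH 7.0, preincubated 15 min at room temperature with compound. Reaction started with 40 uM arachidonic acid, 30 min at room temperature. Hydroperoxide measured by Fe-xylenol orange, 573/405 nm absorbance ratio.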
On the % scale 0 is the no-effect control and ±100 the full control effect; potency means the concentration at half of the fitted maximal effect.

Amino acid sequences for entries named in this document (tags omitted).
UniProt P18054, whole entry, looked up: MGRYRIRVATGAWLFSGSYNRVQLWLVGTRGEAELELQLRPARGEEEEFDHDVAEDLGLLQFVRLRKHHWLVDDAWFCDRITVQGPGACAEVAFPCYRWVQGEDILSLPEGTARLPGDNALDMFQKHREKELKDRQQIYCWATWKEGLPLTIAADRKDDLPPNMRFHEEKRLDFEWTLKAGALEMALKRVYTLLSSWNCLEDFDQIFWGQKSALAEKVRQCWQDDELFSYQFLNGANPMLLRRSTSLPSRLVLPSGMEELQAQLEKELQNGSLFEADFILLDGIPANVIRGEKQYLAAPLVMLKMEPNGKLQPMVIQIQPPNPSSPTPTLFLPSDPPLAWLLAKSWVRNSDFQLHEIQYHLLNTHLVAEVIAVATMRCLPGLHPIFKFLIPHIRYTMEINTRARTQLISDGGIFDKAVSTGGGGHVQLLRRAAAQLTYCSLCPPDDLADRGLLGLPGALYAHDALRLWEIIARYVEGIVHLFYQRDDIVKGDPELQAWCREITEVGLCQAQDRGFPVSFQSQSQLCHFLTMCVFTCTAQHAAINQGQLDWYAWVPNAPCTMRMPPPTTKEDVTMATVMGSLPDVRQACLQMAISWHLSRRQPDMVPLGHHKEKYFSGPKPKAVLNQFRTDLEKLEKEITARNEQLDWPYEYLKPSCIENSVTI

Row | SMILES | Potency | activity change, negative = inhibition
1 | Cc1cccc2cc(CN(Cc3ccco3)C(=O)c3ccncc3)c(=O)[nH]c12 | inactive | 
2 | CCOC(=O)c1ccc(NC(=O)c2cccc(S(=O)(=O)N3CCOCC3)c2)cc1 | inactive | 
3 | CC(C)(C)c1nnc(NC(=O)C2c3ccccc3Oc3ccccc32)s1 | inconclusive: 35.5 µM [inhibitor, partial curve] | 
4 | CCOC(=O)c1c(S(=O)(=O)N2CCCC(C(=O)NCc3ccccc3Cl)C2)c(C)n(C)c1C (stereo unspecified) | inconclusive: 112 µM [inhibitor, partial curve, poor fit] | 
5 | O=C(/C=C/c1ccco1)Nc1cccc(NC(=O)/C=C/c2ccco2)n1 | inactive | 
6 | Cc1ccc(S(=O)(=O)NCC(=O)OCC(=O)NC(=O)NC2CCCC2)cc1 | inconclusive: 35.5 µM [inhibitor, single point] | 
7 | CCN(CC)C(=O)c1ccccc1NC(=O)c1cccc(S(=O)(=O)N(CC)CC)c1 | inactive | 
8 | O=C(CCNc1c(-c2cccc(F)c2)nc2cnccn12)N1CCCC1 | inconclusive: 39.8 µM [inhibitor, partial curve, poor fit] | 
9 | Cc1cccc(C)c1-n1nnnc1SC(C(=O)N1CCOCC1)c1ccccc1 (stereo unspecified) | inactive | 
10 | CC(c1nc2ccccc2s1)N(C)S(=O)(=O)c1ccccc1 (stereo unspecified) | inconclusive: 20 µM [inhibitor, partial curve, poor fit] | 
11 | COCCOc1ccc(C(=O)/C=C/c2ccc(OC)c(O)c2)cc1 | inconclusive: 126 µM [inhibitor, partial curve, poor fit] | 
12 | COc1ccc(C2(C(=O)N3CCCCCCN(C)C(=O)[C@@H]4CCC[C@@H]43)CC2)cc1 | inactive | 
13 | O=C(CN1CCC(c2ccccc2)CC1)c1c[nH]c2ccccc12 | inconclusive: 31.6 µM [inhibitor, partial curve] | 
14 | CCn1c(=O)c2sccc2n2c(CCCC(=O)N3CCN(c4cccc(Cl)c4)CC3)nnc12 |  | inconclusive: -33.4% [inhibitor]
15 | O=C(Cc1n[nH]c(=O)c2ccccc12)NCc1ccc(OC(F)F)cc1 | inconclusive: 100 µM [inhibitor, partial curve, poor fit] | 
16 | CCN(CC)CCCN1C=C2C(=O)C(C)(OC(=O)CCC(=O)OC)C(=O)C(Br)=C2C=C1c1ccc(OC)cc1 (stereo unspecified) | inconclusive: 100 µM [inhibitor, partial curve, poor fit] | 
17 | CC(C)(C)c1nnc([C@H]2CCN(C(=O)CCC(=O)O)C2)o1 | inactive | 
18 | Cc1ccc(-n2nc3c(N4CCCC(C(=O)NCc5ccc(Cl)cc5)C4)nnc(C)c3c2C)cc1 (stereo unspecified) | inactive | 
19 | O=C(Nc1ccc(N2CCOCC2)cc1)c1cn2ccccc2n1 | inactive | 
20 | COC(=O)c1sccc1NC(=O)Nc1cccc(F)c1 | inconclusive: 44.7 µM [inhibitor, partial curve, poor fit] | 
21 | CCCc1cc(=O)oc2cc(OC(C)C(=O)Nc3cccc(C(C)=O)c3)ccc12 (stereo unspecified) | inconclusive: 70.8 µM [inhibitor, single point] | 
22 | COCc1cnc2c(c1SCc1ccccc1)c(=O)n(C)c(=O)n2C | inconclusive: 56.2 µM [inhibitor, partial curve, poor fit] | 

Row | SMILES | Potency | activity change, negative = inhibition
23 | COCOCCn1cc(CN2CCS(=O)(=O)N(Cc3ccc(-c4cccc(CO)c4)cc3)C(C)C2=O)nn1 (stereo unspecified) | inconclusive: 89.1 µM [inhibitor, single point] | 
24 | O=C(CCS(=O)(=O)c1nc(-c2cccs2)cc(C(F)(F)F)n1)Nc1cc(Br)ccc1O | inactive | 
25 | CCc1ccc(OCCNc2cc(N3CCNC(C)C3)ccc2[N+](=O)[O-])cc1 (stereo unspecified) | inconclusive: 89.1 µM [inhibitor, single point] | 
26 | Clc1ccc(Cn2c(-c3cccnc3Cl)nc3ccccc32)c(Cl)c1 | inactive | 
27 | O=C(CC1CCCCC1)N1CCC(c2nc(-c3ccc(S(=O)(=O)N4CCCC4)cc3)no2)CC1 | inactive | 
28 | O=C(COc1ccccc1)N1CCc2ccccc21 | inactive | 
29 | COc1ccc2cc(C)c3nnc(SCc4cccnc4)n3c2c1 | inconclusive: 100 µM [inhibitor, partial curve, poor fit] | 
30 | CCn1c(C)[n+](CCOCC[n+]2c(C)n(CC)c3cc(Cl)c(Cl)cc32)c2cc(Cl)c(Cl)cc21 | inconclusive: 4.47 µM [inhibitor, partial curve, poor fit] | 
31 | COc1ccc(N2CCN(Cc3cc(=O)oc4ccc(Cl)cc34)CC2)cc1 | inactive | 
32 | COc1cc(OC)cc(C2=Cc3ccc(OC)cc3C(CC(C)=O)N2c2ccc(C#CC3(O)CCCCC3)cc2)c1 (stereo unspecified) | inconclusive: 5.01 µM [inhibitor, full curve, poor fit] | 
33 | Cc1ccc(NC(=O)Cn2c(=O)n(Cc3nc(C)no3)c(=O)c3cc4c(cc32)OCO4)c(C)c1 | inactive | 
34 | Nc1nc2sc3c(c2cc1C(=O)NCC(=O)O)CCCC3 | inconclusive: 44.7 µM [inhibitor, single point] | 
35 | CCN(CC(=O)Nc1c(F)cccc1F)C(=O)c1ccc(S(=O)(=O)N2CCCCCC2)cc1 | inactive | 
36 | Cc1cc(C)c(S(=O)(=O)Nc2ccc(-c3cn4ccccc4n3)cc2)c(C)c1 | inactive | 
37 | CCOc1ccc2cc(-c3csc(Nc4ccc(F)cc4)n3)c(=O)oc2c1 | inconclusive: 39.8 µM [inhibitor, partial curve, poor fit] | 
38 | Cc1cc2cc(CN(CCCN3CCOCC3)C(=O)NC3CCCCC3)c(=O)[nH]c2cc1C | inconclusive: 50.1 µM [inhibitor, partial curve, poor fit] | 
39 | O=C(O)c1cc(-c2ccco2)nn1-c1cccc(Cl)c1 | active: 35.5 µM | 
40 | CS(=O)(=O)N(CC(=O)N1CCc2ccccc2C1)Cc1ccc(F)cc1 | inconclusive: 126 µM [inhibitor, partial curve, poor fit] | 
41 | COc1ccc(C2CC(C(C)(C)C)=NN2c2ccc(S(N)(=O)=O)cc2)cc1 (stereo unspecified) | inconclusive: 50.1 µM [inhibitor, partial curve, poor fit] | 
42 | C[C@@H](O)CNC(=O)c1nc(-c2ccc3[nH]ccc3c2)no1 | inconclusive: 141 µM [inhibitor, single point] | 
43 | Cc1nc2nc(NCc3ccccc3)[nH]n2c(=O)c1CCC(=O)Nc1cccc2ccccc12 | inactive | 
44 | CN1CCC(N2CCN(C3CN(Cc4cn(Cc5ccc(C(F)(F)F)cc5)nn4)S(=O)(=O)C3)CC2)CC1 (stereo unspecified) | inconclusive: 25.1 µM [inhibitor, partial curve] | 

Row | SMILES | Potency | activity change, negative = inhibition
45 | O=C(c1ccccc1F)N1CCc2n[nH]c(=O)n2CC1 | inactive | 
46 | CCN(CC)CCN1CNC(=S)N(c2ccccc2OC)C1 | inconclusive: 100 µM [inhibitor, single point] | 
47 | Cc1ccc(C)c(NC(=O)CN(C)C(=O)CC2OC(=O)c3ccccc32)c1 (stereo unspecified) | inactive | 
48 | CN1CCN(c2nc(-c3cccc([N+](=O)[O-])c3)nc3ccccc23)CC1 | inactive | 
49 | Cc1ccc(Nc2sc(C(=O)c3ccccc3)c(N)c2C(=O)Nc2ccc(Cl)cc2)cc1 | inconclusive: 56.2 µM [inhibitor, partial curve, poor fit] | 
50 | CN(C(=O)CSc1nc2ccccc2c(=O)n1-c1ccc(F)cc1)C1CCS(=O)(=O)C1 (stereo unspecified) | inconclusive: 31.6 µM [inhibitor, single point] | 
51 | CN(/C=C/C(=C/C=[N+](C)c1ccccc1)OCCCS(=O)(=O)[O-])c1ccccc1 | inconclusive: 89.1 µM [inhibitor, single point] | 
52 | c1ccc(OCCN2CCOCC2)cc1 | inactive | 
53 | CCOCCCNC(=O)c1cc(Sc2cccc(Cl)c2)nc2ccccc12 | inconclusive: 0.501 µM [inhibitor, full curve, poor fit] | 
54 | Cc1ccc(C)c(OCC(O)CN2CCC(C)CC2)c1C (stereo unspecified) | inconclusive: 3.55 µM [inhibitor, full curve, poor fit] | 
55 | COc1ccc(-c2nc(C#N)c(N3CCN(C)CC3)o2)cc1OC | inconclusive: 89.1 µM [inhibitor, single point] | 
56 | COc1ccc(-c2cn3nc(N4CCCC(C(=O)Nc5cccc(OC)c5)C4)sc3n2)cc1 (stereo unspecified) | inconclusive: 126 µM [inhibitor, single point] | 
57 | O=c1[nH]c(=S)[nH]cc1Oc1ccccc1 | inconclusive: 44.7 µM [inhibitor, partial curve, poor fit] | 
58 | CCc1cc(C(=O)c2ccc(OC)cc2)c(NC(=O)CC(C)(C)CC(=O)O)s1 | inconclusive: 126 µM [inhibitor, single point] | 
59 | COc1ccc(Cc2nnc(NC(=O)Nc3ccccc3F)s2)cc1OC | inconclusive: 79.4 µM [inhibitor, single point] | 
60 | Cc1cc(C)nc(N2CCCC(C(=O)NCc3ccccc3F)C2)n1 (stereo unspecified) | inconclusive: 100 µM [inhibitor, single point] | 
61 | COc1ccc(CNC(=O)C[C@@H]2c3nc(NC(=O)c4cccs4)sc3C[C@@H]3[C@](C)(CO)[C@H](O)CC[C@]32C)cc1 | inconclusive: 39.8 µM [inhibitor, partial curve, poor fit] | 
62 | CCOC(=O)C(=O)Nc1nc(-c2ccc3c(c2)CCN3C(=O)C2CC2)c(C)s1 | inconclusive: 6.31 µM [inhibitor, full curve] | 
63 | Cc1ccc(C2CC(c3ccccc3)=NN2c2nc(C)cs2)cc1 (stereo unspecified) | inconclusive: 11.2 µM [inhibitor, full curve, poor fit] | 
64 | Cc1cc(C)n2ncc(C(=O)N3CCC(c4[nH]ncc4-c4ccccc4)CC3)c2n1 | inactive | 
65 | Cc1ccsc1C(=O)OCC(=O)Nc1sccc1C(N)=O | inconclusive: 141 µM [inhibitor, single point] | 
66 | C=CCOc1cccn2c(N(C=O)Cc3ccccc3)c(CC)nc12 | inconclusive: 50.1 µM [inhibitor, partial curve, poor fit] | 

Retrieved one by one from above, three records:
Row | SMILES | Potency | activity change, negative = inhibition
43 | Cc1nc2nc(NCc3ccccc3)[nH]n2c(=O)c1CCC(=O)Nc1cccc2ccccc12 | inactive | 
27 | O=C(CC1CCCCC1)N1CCC(c2nc(-c3ccc(S(=O)(=O)N4CCCC4)cc3)no2)CC1 | inactive | 
51 | CN(/C=C/C(=C/C=[N+](C)c1ccccc1)OCCCS(=O)(=O)[O-])c1ccccc1 | inconclusive: 89.1 µM [inhibitor, single point] | 
